Measurements as given in article PMC5573332.
Positions count from the first letter of the chain named. No constants are given. Whether binding was seen depends on the method and setting. Binding seen in cells or lysates may run through a third protein. Some entries that bind do so weakly or less than the wild type. For part of these data: Tags and fused reporters may be left off the sequences shown.

Amino acid sequences for entries named in this document (tags omitted).
UniProt Q05397: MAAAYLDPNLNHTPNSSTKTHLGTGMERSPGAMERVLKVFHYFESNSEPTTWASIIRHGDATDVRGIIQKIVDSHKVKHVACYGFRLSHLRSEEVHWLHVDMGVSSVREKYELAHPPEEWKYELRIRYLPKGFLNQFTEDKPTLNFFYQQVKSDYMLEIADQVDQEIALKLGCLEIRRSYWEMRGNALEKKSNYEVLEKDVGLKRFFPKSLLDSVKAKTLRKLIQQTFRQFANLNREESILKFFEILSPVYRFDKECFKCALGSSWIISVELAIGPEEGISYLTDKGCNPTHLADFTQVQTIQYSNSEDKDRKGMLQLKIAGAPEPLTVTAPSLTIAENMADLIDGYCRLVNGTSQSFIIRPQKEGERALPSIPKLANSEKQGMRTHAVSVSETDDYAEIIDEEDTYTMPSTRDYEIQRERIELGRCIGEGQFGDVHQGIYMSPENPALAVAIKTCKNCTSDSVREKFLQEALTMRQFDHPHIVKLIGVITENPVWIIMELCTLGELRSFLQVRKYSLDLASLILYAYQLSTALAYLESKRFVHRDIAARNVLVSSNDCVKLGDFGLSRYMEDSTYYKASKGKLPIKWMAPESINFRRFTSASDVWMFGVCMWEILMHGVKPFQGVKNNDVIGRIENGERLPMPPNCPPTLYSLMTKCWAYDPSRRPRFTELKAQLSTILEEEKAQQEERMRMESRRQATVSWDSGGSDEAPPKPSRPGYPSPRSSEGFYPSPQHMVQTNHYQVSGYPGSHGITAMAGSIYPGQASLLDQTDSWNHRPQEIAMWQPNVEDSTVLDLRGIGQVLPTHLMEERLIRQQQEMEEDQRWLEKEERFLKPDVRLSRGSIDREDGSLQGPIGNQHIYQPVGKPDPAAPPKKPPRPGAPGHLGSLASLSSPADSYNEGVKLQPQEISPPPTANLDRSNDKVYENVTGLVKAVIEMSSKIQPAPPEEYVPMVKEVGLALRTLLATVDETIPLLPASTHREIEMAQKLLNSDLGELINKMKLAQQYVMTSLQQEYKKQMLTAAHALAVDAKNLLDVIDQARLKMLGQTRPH
UniProt P49023: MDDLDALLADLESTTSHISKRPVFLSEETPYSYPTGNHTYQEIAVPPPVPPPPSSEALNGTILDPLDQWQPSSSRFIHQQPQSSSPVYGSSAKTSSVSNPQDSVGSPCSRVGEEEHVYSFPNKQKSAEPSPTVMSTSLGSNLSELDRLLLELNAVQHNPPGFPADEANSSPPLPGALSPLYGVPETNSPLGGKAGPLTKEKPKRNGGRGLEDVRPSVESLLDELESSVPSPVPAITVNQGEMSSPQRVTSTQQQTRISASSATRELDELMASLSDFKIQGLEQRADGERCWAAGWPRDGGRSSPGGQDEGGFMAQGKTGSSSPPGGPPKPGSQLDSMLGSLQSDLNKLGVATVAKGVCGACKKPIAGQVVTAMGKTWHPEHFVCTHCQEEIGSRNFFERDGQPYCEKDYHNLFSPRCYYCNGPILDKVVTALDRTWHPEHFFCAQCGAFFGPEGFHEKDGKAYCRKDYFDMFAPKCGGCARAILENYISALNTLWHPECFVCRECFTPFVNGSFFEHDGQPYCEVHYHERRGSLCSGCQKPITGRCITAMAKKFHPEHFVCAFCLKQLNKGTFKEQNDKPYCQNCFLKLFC

Legend:
[1] = biological target: T1, FLAG-tagged PKD2 (Protein kinase D 2) (UniProt Q9BZL6); assay: co-IP; Hek293T cells co-transfected with FLAG-PKD2 or FLAG-PKD2.Y87F and mCherry-FAK; PKD2 immunoprecipitated (anti-FLAG), blot for FAK; lysis in 50 mM Tris-HCl pH 7.4, 1% Triton X-100, 150 mM NaCl, 5 mM EDTA
T1 sequence: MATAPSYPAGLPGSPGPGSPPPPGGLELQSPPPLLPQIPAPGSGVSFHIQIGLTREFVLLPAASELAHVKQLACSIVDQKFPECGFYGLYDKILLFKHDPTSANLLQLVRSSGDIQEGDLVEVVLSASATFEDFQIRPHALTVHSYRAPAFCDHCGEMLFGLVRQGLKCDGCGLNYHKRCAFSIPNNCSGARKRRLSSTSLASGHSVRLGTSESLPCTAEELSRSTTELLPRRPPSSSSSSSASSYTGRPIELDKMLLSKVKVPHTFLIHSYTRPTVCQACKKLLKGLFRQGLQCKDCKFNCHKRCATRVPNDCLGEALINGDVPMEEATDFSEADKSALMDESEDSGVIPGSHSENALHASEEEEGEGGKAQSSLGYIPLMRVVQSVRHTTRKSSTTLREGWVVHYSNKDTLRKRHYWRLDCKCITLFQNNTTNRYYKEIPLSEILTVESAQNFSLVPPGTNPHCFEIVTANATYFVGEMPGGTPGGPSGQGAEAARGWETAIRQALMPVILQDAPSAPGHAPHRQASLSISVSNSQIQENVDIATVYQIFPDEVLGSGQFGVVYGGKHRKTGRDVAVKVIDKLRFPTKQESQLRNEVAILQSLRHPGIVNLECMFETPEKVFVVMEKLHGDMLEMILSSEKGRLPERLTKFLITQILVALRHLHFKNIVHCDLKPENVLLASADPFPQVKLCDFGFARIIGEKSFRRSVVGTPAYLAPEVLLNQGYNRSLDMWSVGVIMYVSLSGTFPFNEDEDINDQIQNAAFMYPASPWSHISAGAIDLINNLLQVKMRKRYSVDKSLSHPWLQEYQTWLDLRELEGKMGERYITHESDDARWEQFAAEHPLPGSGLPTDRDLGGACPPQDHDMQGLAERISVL

FLAG-tagged PKD2.Y87F = biological target: T2, FLAG-tagged PKD2.Y87F (UniProt Q9BZL6); assay: as above
T2 sequence: T1 sequence with Y87F

[2] = biological target: T3, PKD2 (immunoprecipitated for the paxillin co-immunoprecipitation) (UniProt Q9BZL6); assay: co-IP; PKD2 immunoprecipitates probed for paxillin (Supplemental Figure S2A)
T3 sequence: T1 sequence

Substance	binding [1]	binding (FLAG-tagged PKD2.Y87F)	binding [2]
mCherry-FAK (Focal Adhesion Kinase) (from UniProt Q05397 1-1052) (enzyme)	binds	no binding	
paxillin (from UniProt P49023 1-591)			binds
